# Screening data, single-dose tests

Chains of the proteins cited; added tags and fusions are not shown. Residues count along the entry.
UniProt A4I591, 1-473: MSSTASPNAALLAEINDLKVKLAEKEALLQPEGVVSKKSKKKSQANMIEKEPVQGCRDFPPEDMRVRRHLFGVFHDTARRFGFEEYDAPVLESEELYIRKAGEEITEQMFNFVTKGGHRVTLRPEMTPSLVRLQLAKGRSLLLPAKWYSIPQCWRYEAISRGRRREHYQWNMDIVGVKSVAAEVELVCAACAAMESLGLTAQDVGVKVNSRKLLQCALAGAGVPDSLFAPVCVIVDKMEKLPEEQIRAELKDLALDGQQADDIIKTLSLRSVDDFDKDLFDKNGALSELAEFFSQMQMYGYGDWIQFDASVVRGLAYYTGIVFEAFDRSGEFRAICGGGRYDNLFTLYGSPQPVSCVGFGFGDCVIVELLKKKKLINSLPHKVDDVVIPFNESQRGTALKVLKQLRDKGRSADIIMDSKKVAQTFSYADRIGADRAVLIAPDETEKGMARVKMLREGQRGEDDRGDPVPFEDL

From ChEMBL document CHEMBL3988442, “University of Dundee, Small-Polar-MMV Screening Library” (2021).

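Histidine-tRNA ligase, Leishmania infantum (UniProt A4I591). Enzyme assay of histidyl-tRNA synthetase; the read-out is not stated. Tested at 30 µM. The record gives no direction; compounds that gave an IC50 in retests scored well above the rest, so higher reads as stronger inhibition. The assay is labelled LdHisRS but filed under L. infantum. About 69,000 compounds were tested under these conditions; 0.6% (about 410) showed 50% or more at least once.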

The filed quantity is “Percent Effect” (%). The controls that fix the scale are not given in the record; negative values are as filed. Compounds were drawn at random from those tested, without regard to their results.

* CCOCC(=O)N1CCCn2c(CN3CCOCC3)nnc2C1 : 18.09%
* OC[C@H]1CCCN1c1nccc(-c2c[nH]nc2C2CCCCC2)n1 : 17.14%
* Cc1ccc(C(O)CN2CCN(Cc3nccn3C)CC2)cc1C (stereo not given) : 13.27%
* CN1CCc2c(C#N)c(NCc3ccncc3)n3cnnc3c2C1 : 21.05%
* CN1C(=N)NC(=O)/C1=C\c1ccc(-c2ccc(F)cc2)o1 : 15.79%
* CCOC1CCN(C(=O)NCc2ccc(CN3CCOCC3)cc2)CC1 : 13.49%
* CCOc1ccc(C(=O)N(Cc2cnn(C)c2)C(C)C)cc1 : 14.29%
* Cn1nc2c(cc1=O)CN(Cc1nc(-c3cccs3)no1)CC2 : 20.27%
* CCN1CCN(C(=O)c2nc(C)n(-c3ccccc3Cl)n2)CC1 : 22.73%
* CC(C)(C)c1n[nH]c(C2CN(C(=O)c3cc(Cl)c[nH]3)CCO2)n1 (stereo not given) : 22.86%
* Cc1noc(C)c1CN1Cc2cnn(C)c2C(COCC2CC2)C1 (stereo not given) : 14.71%
* CCCn1[nH]c(CNc2cccc(Cl)c2)nc1=O : 15.79%
* NC(=O)CN1CC[C@@]2(O)CCCC[C@H]2[C@@H]1c1ccc2c(c1)OCO2 : 3.297%
* CCn1c(CN2CCN(CC(N)=O)CC2)nc2c(F)cccc21 : 24.8%
* CCC(CO)(CO)NC(=O)C1CCC(=O)N(CCc2ccccc2)C1 (stereo not given) : 16.05%
* Cn1cnc2c1CCN(CC(=O)N(Cc1ccccc1F)C1CC1)C2 : 27.73%
* CCc1nc(C2CCCN(c3nccc(C)n3)C2)no1 (stereo not given) : 5.714%
* Fc1ccc(-c2nc(CNC3CCc4ncnn4C3)cs2)cc1 (stereo not given) : 12.04%
* Cc1c(Cl)cccc1NC(=O)CN(Cc1cccnc1)C(C)C : 5.376%
* COc1cc(N2C[C@H](OCc3cccnc3)[C@H]3OCCC[C@H]32)ncn1 : 7.965%
* COCC1CCN(c2cc(C3CN(C)CCO3)nc(C)n2)CC1 (stereo not given) : -0.7299%
* COc1ccc(CNC(=O)Nc2cccnc2N2CCCC2)cc1OC : 14.91%
* CCc1nc(CNc2ccc(F)cc2I)no1 : 11.71%
* O=C(c1ncccc1O)N1CCc2c(ncnc2N2CCOCC2)C1 : 18.18%
* O=C(Cc1noc2ccccc12)N1CCC(Nc2cccnn2)CC1 : 4.386%
* Cc1ccc(N2CC[C@@H]3CN(Cc4c[nH]cn4)C[C@@H]3C2)nn1 : -7.895%
* O=C(c1cnc(O)c(Cl)c1)N1CCCC(c2nccs2)C1 (stereo not given) : -5.755%
* O=C(CCc1c(F)cccc1F)N1CCCCC1Cn1cccn1 (stereo not given) : 15.04%
* CS(=O)(=O)N1CCc2[nH]cnc2C12CCN(C(=O)c1ccc[nH]1)CC2 : 12.9%
* Cc1cc(N(C)Cc2cc(C(C)(C)C)n[nH]2)nc(-c2cccnc2)n1 : -6.452%
* CN(C)C(=O)[C@H]1C[C@@H]2CN(C(=O)NCC3CCCCC3)C[C@H]1O2 : 15.52%
* Cc1noc(C)c1CNC(=O)c1cn(CCC2CCCCN2)nn1 (stereo not given) : 16.67%
* CC(C)(O)CCc1cccc(C(=O)N2CCC[C@H]2C(N)=O)c1 : 24.47%
* Cc1ncsc1CN1CCOC(C)(C(N)=O)C1 (stereo not given) : 7.042%
* CNc1snc(C)c1C(=O)N1CCCC(n2ccnc2C(C)C)C1 (stereo not given) : 4.054%
* Cc1cc(C(=O)NCCn2nc3ccccn3c2=O)[nH]n1 : 4.255%
* Cc1ocnc1C(=O)N1CCN(CCOc2ccccc2)CC1 : 12.59%
* CCOC(C)c1nc(Cn2cc(-n3cccc3)cn2)cs1 (stereo not given) : 11.67%
* CC(c1nc(C2CC2)no1)N1CCN(Cc2ccsc2)CC1 (stereo not given) : 2.128%
* CSc1cccc(CN2CCn3nc(CNC(C)=O)cc3C2)c1 : 1.205%
* CN(C)CC(=O)N1Cc2ncn(C)c2C(COCC2CCOCC2)C1 (stereo not given) : 11.76%
* CC(=O)N1CCN([C@@H]2CN(C(=O)c3ccccc3)C[C@H]2O)CC1 : 11.35%
* Cc1nccc([C@@H]2C[C@@H]3CCN(S(=O)(=O)C4CC4)C[C@H]3O2)n1 : 9.722%
* CCc1nc(NC2CCCN(C(=O)c3cccs3)C2)c2cnn(C)c2n1 (stereo not given) : -8.696%
* c1cnc(NCC2Cn3nnc(-c4ccoc4)c3CO2)nc1 (stereo not given) : 21%

The last 4 entries again:

SMILES,Percent Effect
CC(=O)N1CCN([C@@H]2CN(C(=O)c3ccccc3)C[C@H]2O)CC1,11.35%
Cc1nccc([C@@H]2C[C@@H]3CCN(S(=O)(=O)C4CC4)C[C@H]3O2)n1,9.722%
CCc1nc(NC2CCCN(C(=O)c3cccs3)C2)c2cnn(C)c2n1 (stereo not given),-8.696%
c1cnc(NCC2Cn3nnc(-c4ccoc4)c3CO2)nc1 (stereo not given),21%